# Structures can show the parent of a compound that is named as a salt. Some of the results follow. Part of the spread comes from offsets between plates or batches.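 HCT116-GFP is a human colorectal cancer cell line that carries a KRAS mutation, is microsatellite-unstable and always makes green fluorescent protein; the immune cells came from healthy donors. Live-cell imaging of the green signal stood in for cancer cell survival, and activated immune cells alone cut survival to about half.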
# System: HCT116-GFP
# Assay: HCT116-GFP viability (GFP intensity) relative to untreated HCT116-GFP monoculture control, co-culture with activated PBMCs; higher = less cancer cell killing
# Conditions: culture: co-culture with anti-CD3/IL2 activated PBMCs 1:1; 10 µM; 72 h
row,SMILES,HCT116-GFP viability
1,CCCCOc1ccc(C(=O)CCN2CCCCC2)cc1 [Dyclonine hydrochloride],50.4%
2,CC(C)(C)CC(C)(C)c1ccc(OCCOCC[N+](C)(C)Cc2ccccc2)cc1 [Benzethonium chloride],25.2%
3,Cn1nnc2c(C(N)=O)ncn2c1=O [Temozolomide],39.1%
4,OC(CCN1CCCC1)(c1ccccc1)C1CCCCC1 (configuration not stated) [Procyclidine hydrochloride],71.5%
5,CC(C)NCC(O)COc1cccc2[nH]ccc12 (configuration not stated) [Pindolol],45.1%
6,CC(CN(C)C)CN1c2ccccc2CCc2ccccc21 (configuration not stated) [Trimipramine maleate salt],65.5%
7,CC(C)C(=O)c1c(C(C)C)nn2ccccc12 [Ibudilast],41.8%
8,NCCc1ccc(O)c(O)c1 [Dopamine hydrochloride],20.9%
9,CC1(C)O[C@@H]2C[C@H]3[C@@H]4C[C@H](F)C5=CC(=O)C=C[C@]5(C)[C@H]4[C@@H](O)C[C@]3(C)[C@]2(C(=O)CO)O1 [Flunisolide],106%
10,C[C@H](CS)C(=O)N1CCC[C@H]1C(=O)O [Captopril],43.5%
11,CN(Cc1cc(Br)cc(Br)c1N)C1CCCCC1 [Bromhexine hydrochloride],38.7%
12,Cc1c(Nc2ncccc2C(=O)O)cccc1C(F)(F)F [Flunixin meglumine],84.4%
13,CC[C@H](c1ccc(O)cc1)[C@@H](CC)c1ccc(O)cc1 [Hexestrol],68.2%
14,CCCCCCNC(=O)n1cc(F)c(=O)[nH]c1=O [Carmofur],1.39%
15,CCCOc1ccccc1-c1nc2[nH]nnc2c(=O)[nH]1 [Zaprinast],33.8%
16,COc1ccc(Cl)cc1C(=O)NCCc1ccc(S(=O)(=O)NC(=O)NC2CCCCC2)cc1 [Glibenclamide],53.3%
17,Nc1nc(=O)n([C@@H]2CS[C@H](CO)O2)cc1F [(-)-Emtricitabine],36.1%
18,CC#C[C@]1(O)CC[C@H]2[C@@H]3CCC4=CC(=O)CCC4=C3[C@@H](c3ccc(N(C)C)cc3)C[C@@]21C [Mifepristone],38.3%
19,CC(C(O)c1ccc(O)cc1)N1CCC(Cc2ccccc2)CC1 (configuration not stated) [Ifenprodil tartrate],51.2%
20,CN1CCN2c3ncccc3Cc3ccccc3C2C1 (configuration not stated) [Mirtazapine],55.3%
21,CC(C)[C@H](N)C(=O)OCCOCn1cnc2c(=O)nc(N)[nH]c21 [Valacyclovir hydrochloride],51.1%
22,Cc1cc(C)nc(NS(=O)(=O)c2ccc(N)cc2)n1 [Sulfamethazine sodium salt],74.7%
23,CC1(C)O[C@@H]2C[C@H]3[C@@H]4C[C@H](F)C5=CC(=O)C=C[C@]5(C)[C@@]4(F)[C@@H](O)C[C@]3(C)[C@]2(C(=O)CO)O1 [Fluocinolone acetonide],91.7%
24,COc1cc(NS(=O)(=O)c2ccc(N)cc2)ncn1 [Sulfamonomethoxine],68.3%
25,COC(=O)N/N=C/c1c[n+]([O-])c2ccccc2[n+]1[O-] [Carbadox],36.4%
26,CN(C(=O)CN(CCO)CC(=O)N(C)C(C)(C)Cc1ccccc1)C(C)(C)Cc1ccccc1 [Oxethazaine],34.1%

# By substructure, the entries above with an aryl methoxy group.
row,SMILES,HCT116-GFP viability
16,COc1ccc(Cl)cc1C(=O)NCCc1ccc(S(=O)(=O)NC(=O)NC2CCCCC2)cc1 [Glibenclamide],53.3%
24,COc1cc(NS(=O)(=O)c2ccc(N)cc2)ncn1 [Sulfamonomethoxine],68.3%

# (cont.)

row,SMILES,HCT116-GFP viability
1,CCOC(=O)/C=C(C)/C=C/C=C(C)/C=C/c1c(C)cc(OC)c(C)c1C [Etretinate],69.7%
2,Cc1c(N)c(=O)n(-c2ccccc2)n1C [Ampyrone],34.8%
3,NC[C@H]1O[C@H](O[C@H]2[C@H](O)[C@@H](O[C@H]3O[C@H](CO)[C@@H](O)[C@H](N)[C@H]3O)[C@H](N)C[C@@H]2N)[C@H](N)C[C@@H]1O [Tobramycin],4.82%
4,C=CCOc1ccccc1OCC(O)CNC(C)C (configuration not stated) [Oxprenolol hydrochloride],56.9%
5,O=P(O)(O)C(O)(Cn1ccnc1)P(=O)(O)O [Zoledronic acid hydrate],33.3%
6,Cc1cc(C(C)(C)C)cc(C)c1CC1=NCCN1 [Xylometazoline hydrochloride],47.5%
7,CCN(CC)C(=O)C1(c2ccccc2)CC1CN (configuration not stated) [Milnacipran hydrochloride],50.4%
8,CCN(CCCCOC(=O)c1ccc(OC)c(OC)c1)C(C)Cc1ccc(OC)cc1 (configuration not stated) [Mebeverine hydrochloride],69.4%
9,CCN(CC)CCOCCOC(=O)C1(c2ccccc2)CCCC1 [Carbetapentane citrate],69.1%
10,N[C@H]1CONC1=O [(S)-(-)-Cycloserine],28.3%
11,CCCCC1C(=O)N(c2ccccc2)N(c2ccc(O)cc2)C1=O (configuration not stated) [Oxyphenbutazone],14.7%
12,CCN(CC)C(=O)Nc1ccc(OCC(O)CNC(C)(C)C)c(C(C)=O)c1 (configuration not stated) [Celiprolol hydrochloride],27.1%
13,COc1cc2nc(N3CCN(C(=O)C4COc5ccccc5O4)CC3)nc(N)c2cc1OC (configuration not stated) [Doxazosin mesylate],57.7%
14,CCOC1O[C@H]([C@@H](COCc2ccccc2)OCc2ccccc2)[C@H](OCc2ccccc2)[C@H]1O (some centres not stated) [Tribenoside],33.5%
15,CNCC(O)c1ccc(O)c(O)c1 (configuration not stated) [Racepinephrine hydrochloride],13.4%
16,CCN(CC)CCNC(=O)c1ccc(N)cc1 [Procainamide hydrochloride],46.9%
17,CC(=O)Nc1c(I)c(C(=O)N[C@H]2C(O)O[C@H](CO)[C@@H](O)[C@@H]2O)c(I)c(N(C)C(C)=O)c1I (some centres not stated) [Metrizamide],41.8%
18,C[C@@H]1CCC[C@H](C)N1NC(=O)c1ccc(Cl)c(S(N)(=O)=O)c1 [Clopamide],41.3%
19,CC[C@H]1OC(=O)[C@H](C)[C@@H](O[C@H]2C[C@@](C)(OC)[C@@H](O)[C@H](C)O2)[C@H](C)[C@@H](O[C@@H]2O[C@H](C)C[C@H](N(C)C)[C@H]2O)[C@](C)(O)C[C@@H](C)CN(C)[C@H](C)[C@@H](O)[C@]1(C)O [Azithromycin],59%
20,CN[C@H]1CC[C@@H](c2ccc(Cl)c(Cl)c2)c2ccccc21 [Sertraline],24.1%
21,CC(CNC1CCCCC1)OC(=O)c1ccccc1 (configuration not stated) [Hexylcaine hydrochloride],85.9%
22,Nc1ccc(S(=O)(=O)Nc2nccs2)cc1 [Sulfathiazole],44.3%
23,Cc1ccc(-c2cc(C(F)(F)F)nn2-c2ccc(S(N)(=O)=O)cc2)cc1 [Celecoxib],32.1%
24,C[C@]12CC[C@@H]3c4ccc(O)cc4C[C@@H](CCCCCCCCC[S+]([O-])CCCC(F)(F)C(F)(F)F)[C@H]3[C@@H]1CC[C@@H]2O (some centres not stated) [Fulvestrant],24.6%
25,CO/N=C(\C(=O)N[C@@H]1C(=O)N2C(C(=O)O)=C(COC(C)=O)CS[C@H]12)c1csc(N)n1 [Cefotaxime sodium salt],46.6%
26,CCCCOc1cc(C(=O)OCCN(CC)CC)ccc1N [Benoxinate hydrochloride],42.6%

row,SMILES,HCT116-GFP viability
1,CC(C)Oc1ccc2c(=O)c(-c3ccccc3)coc2c1 [Ipriflavone],33%
2,Cc1cc2cc3c(C)cc(=O)oc3c(C)c2o1 [Trioxsalen],63.5%
3,CC(=O)Nc1nnc(S(N)(=O)=O)s1 [Acetazolamide],34.4%
4,Clc1ccc2nsnc2c1NC1=NCCN1 [Tizanidine hydrochloride],51.5%
5,C[C@@](Cc1ccc(O)c(O)c1)(NN)C(=O)O [Carbidopa],53.1%
6,CCOc1nc2cccc(C(=O)O)c2n1Cc1ccc(-c2ccccc2-c2nnn[nH]2)cc1 [Candesartan],43%
7,Nc1ncnc2c1ncn2[C@@H]1O[C@H](CO)[C@@H](O)[C@@H]1O [Vidarabine],50.9%
8,CC(=O)OC[C@H]1O[C@@H]([S-])[C@H](OC(C)=O)[C@@H](OC(C)=O)[C@@H]1OC(C)=O.CCP(CC)CC.[Au+] [Auranofin],1.13%
9,CCC1(c2ccccc2)C(=O)NCNC1=O [Primidone],61.7%
10,O=C1CC[C@@H](C(=O)N2CSC[C@H]2C(=O)O)N1 [Pidotimod],54.2%
11,Oc1c(Cl)cc(Cl)c2cccnc12 [Chloroxine],6.25%
12,c1ccc(-c2ccc(C(c3ccccc3)n3ccnc3)cc2)cc1 (configuration not stated) [Bifonazole],30.3%
13,CN(C)CCC(c1ccc(Br)cc1)c1ccccn1 (configuration not stated) [Brompheniramine maleate],66.2%
14,CN1CCN(CC(=O)N2c3ccccc3C(=O)Nc3cccnc32)CC1 [Pirenzepine dihydrochloride],51.9%
15,COC(=O)Nc1nc2cc(Sc3ccccc3)ccc2[nH]1 [Fenbendazole],1.47%
16,CN(CCCCCCCCCCN(C)C(=O)Oc1cccc([N+](C)(C)C)c1)C(=O)Oc1cccc([N+](C)(C)C)c1 [Demecarium bromide],45.7%
17,CC(=O)N(CC(O)CO)c1c(I)c(C(=O)NCC(O)CO)c(I)c(C(=O)NCC(O)CO)c1I (configuration not stated) [Iohexol],31.5%
18,Cn1c(=O)c2c(ncn2CC2OCCO2)n(C)c1=O [Doxofylline],80.3%
19,Cc1cc(O)c(C(=O)N[C@@H](C(=O)N[C@@H]2C(=O)N3C(C(=O)O)=C(CSc4nnnn4C)CS[C@H]23)c2ccc(O)cc2)cn1 [Cefpiramide],34.8%
20,CC(=O)O[C@]1(C(C)=O)CC[C@H]2[C@@H]3C=C(Cl)C4=CC(=O)CC[C@]4(C)[C@H]3CC[C@@]21C [Chlormadinone acetate],55.6%
21,CCCNC(=O)NS(=O)(=O)c1ccc(Cl)cc1 [Chlorpropamide],46%
22,CCN(CC)C(C)CN1c2ccccc2Sc2ccccc21 (configuration not stated) [Ethopropazine hydrochloride],78.3%
23,O=C1[C@H]2CCCC[C@H]2C(=O)N1CCCCN1CCN(c2nsc3ccccc23)CC1 [Perospirone],52.3%
24,Clc1cccc(Cl)c1NC1=NCCN1 [Clonidine hydrochloride],46%
25,CO[C@H]1/C=C/O[C@@]2(C)Oc3c(C)c(O)c4c(O)c(c5c(nc6cc(C)ccn65)c4c3C2=O)NC(=O)/C(C)=C\C=C\[C@H](C)[C@H](O)[C@@H](C)[C@@H](O)[C@@H](C)[C@H](OC(C)=O)[C@@H]1C [Rifaximin],35.1%

# 3 compounds from above, sorted by SMILES length, smallest number first:
row,SMILES,HCT116-GFP viability
3,CC(=O)Nc1nnc(S(N)(=O)=O)s1 [Acetazolamide],34.4%
13,CN(C)CCC(c1ccc(Br)cc1)c1ccccn1 (configuration not stated) [Brompheniramine maleate],66.2%
15,COC(=O)Nc1nc2cc(Sc3ccccc3)ccc2[nH]1 [Fenbendazole],1.47%
